Data: US20080311122A1, “Antagonists of Hmgb1 and/or Rage and Methods of Use Thereof” (Medimmune, LLC, priority 2005, published 2008)
Results are given in words; binding and its absence hold for the method and conditions named. Some results given as binding are weak or reduced against the parent protein; the word gives no strength.

Chains of the proteins cited; added tags and fusions are not shown. Residues count along the entry.
UniProt P09429: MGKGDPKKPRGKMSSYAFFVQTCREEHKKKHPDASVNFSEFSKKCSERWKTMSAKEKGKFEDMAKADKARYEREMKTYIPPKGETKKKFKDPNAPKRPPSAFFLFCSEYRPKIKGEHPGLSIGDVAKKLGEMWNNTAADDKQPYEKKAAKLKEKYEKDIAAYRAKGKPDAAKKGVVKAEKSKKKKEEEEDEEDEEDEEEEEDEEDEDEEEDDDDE
UniProt P40673, residues 2-209: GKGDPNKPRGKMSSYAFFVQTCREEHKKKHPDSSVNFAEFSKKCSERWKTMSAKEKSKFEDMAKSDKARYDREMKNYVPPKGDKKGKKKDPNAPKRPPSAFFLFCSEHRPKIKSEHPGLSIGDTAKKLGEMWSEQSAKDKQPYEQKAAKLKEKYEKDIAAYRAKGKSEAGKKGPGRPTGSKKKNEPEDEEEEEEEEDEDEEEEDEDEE

What was measured:
[1] = target: HMGB1 in human sepsis sera (human) (UniProt P09429); assay: immunoprecipitation and Western blot
[2] = target: recombinant HMG1 purified from E. coli as a calmodulin binding protein (CBP) fusion protein (human); assay: sandwich ELISA: antibody (10 ug/ml) captured on anti-human Fc, sample added, mouse anti-HMGB1 and anti-mouse-HRP, OD 450
[3] = target: recombinant HMG1 purified from E. coli as a calmodulin binding protein (CBP) fusion protein (human); assay: sandwich ELISA: antibody captured on anti-human IgG Fc, rHMG1 2 ug/ml in solution, mouse anti-HMGB1 and anti-mouse IgG-HRP, OD 450
[4] = target: recombinant HMG1 purified from E. coli as a calmodulin binding protein (CBP) fusion protein (human); assay: direct ELISA, wells coated with rHMG1 at 5 ug/ml, anti-human IgG-HRP, OD 450
[5] = target: recombinant HMG1 purified from E. coli as a calmodulin binding protein (CBP) fusion protein (human); assay: ELISA format 'Soluble HMG1/Captured Antibody' (squares): antibody captured on anti-human IgG Fc, HMG1 in solution
[6] = target: T1, HMGB1 B-box peptide 91-108 (human); assay: ELISA, biotinylated peptides on avidin plate
T1 sequence (peptide, biotinylated): DPNAPKRPPSAFFLFCSE

[7] = target: recombinant HMG1 purified from E. coli as a calmodulin binding protein (CBP) fusion protein (human); assay: HMG1 capture ELISA
[8] = target: recombinant HMG1 purified from E. coli as a calmodulin binding protein (CBP) fusion protein (human); assay: ELISA, immobilized antibody against immobilized HMG1 format
[9] = target: recombinant HMG1 purified from E. coli as a calmodulin binding protein (CBP) fusion protein (human); assay: ELISA format 'Captured HMG1/Soluble Antibody' (triangles): wells coated with HMG1
[10] = target: T1, HMGB1 B-box peptide 91-108 (human); assay: ELISA on biotinylated HMGB1 peptides captured on NeutrAvidin, antibody in serial dilution from 10 ug/ml, anti-human IgG-HRP, OD 450
[11] = target: recombinant HMG1 purified from E. coli as a calmodulin binding protein (CBP) fusion protein (human); assay: ELISA, immobilized against soluble rHMG1
[12] = target: recombinant HMG1 purified from E. coli as a calmodulin binding protein (CBP) fusion protein (human); assay: sandwich ELISA
HMG2 [13] = target: HMG2 (UniProt P40673); assay: ELISA on coated HMGB2
HMG2 [14] = target: HMG2 (UniProt P40673); assay: ELISA, wells coated with HMGB2 at 5 ug/mL, antibody at 10 ug/mL, anti-human kappa/lambda-HRP, OD 490
HMG2 [15] = target: HMG2 (UniProt P40673); assay: ELISA on coated HMGB2, antibody 10 ug/mL
HMGB1 peptide 179-186 = target: T2, HMGB1 peptide 179-186 (UniProt P09429); assay: ELISA, biotinylated peptides on avidin plate
T2 sequence (peptide, biotinylated, looked up): EKSKKKKE

Measured: binding

B1: anti-HMG1 antibody G4 (antibody, V domains shown)
VH: EVQLLESGGGLVQPGGSLRLSCAASGFTFSWYDMTWVRQAPGKGLEWVSSISPSGGYTKYADSVKGRFTISRDNSKNTLYLQMNSLRAEDTAVYYCTTEFYDYLDVWGKGTTVTVSS
VL: DIQMTQSPGTLSLSPGEGATLSCRASQSVSSTYLAWYQQKPGQAPRLLIYEASKRATGTPARFSGSGSGTDFTLSISSLEPEDFAVYYCQHRHNWPPQWTFGQGTKVEVK
not listed: [11] | [12] | HMG2 [13] | HMG2 [14] | HMG2 [15] | HMGB1 peptide 179-186
binds: all other assays above

B2: anti-HMG1 antibody G34 (antibody, V domains shown)
VH: EVQLLESGGGLVQPGGSLRLSCAASGFTFSHYMMGWVRQAPGKGLEWVSRISPSGGGTVYADSVKGRFTISRDNSKNTLYLQMNSLRAEDTAVYYCARGGNWNYISYYYYYLDVWGKGTTVTVSS
VL: DIQMTQSPSSLSASVGDRVAITCRASQSIDTYLNWYQQKPGKAPKLLIYAASKLEDGVPSRFSGSGTGTDFTLTIRSLQPEDFASYFCQQSYSSPGITFGPGTKVEIK
binds: [11]

B3: anti-HMG1 antibody S16 (antibody, V domains shown)
VH: EVQLLESGGGLVQPGGSLRLSCAASGFTFSWYSMLWVRQAPGKGLEWVSYISPSGGFTNYADSVKGRFTISRDNSKNTLYLQMNSLRAEDTAVYYCARWDYNSGWYYDHWGQGTLVTVSS
VL: DIQMTQSPDTLSLSPGERATLSCRASQSVNSRNLAWYQQKPGQAPRLLIYGASTRATGIPDRFSGSVSGTEFTLTISSLQPDDFATYYCQQYNSYFTFGQGTKLEIK
not listed: [1] | [2] | [5] | [8] | [9]
binds: all other assays above

B4: anti-HMG1 antibody G16 (antibody, V domains shown)
VH: EVQLLESGGGLVQPGGSLRLSCAASGFTFSWYKMTWVRQAPGKGLEWVSSISPSGGFTSYADSVKGRFTISRDNSKNTLYLQMNSLRAEDTAVYYCARDLDIRHAFDIWGQGTMVTVSS
VL: DIQMTQSPGTLSLSPGESGTLSCRASESVSSRHFAWYQQKPGQAPRLLIYGASSRPTGIPDRFSGSGSGTDFTLTLSRLEPEDFAVYFCQYYGSSPYTFGGGTKVEMK
binds: [11] | [4]

B5: anti-HMG1 antibody S12 (antibody, V domains shown)
VH: EVQLLESGGGLVQPGGSLRLSCAASGFTFSKYIMHWVRQAPGKGLEWVSGIVPSGGLTEYADSVKGRFTISRDNSKNTLYLQMNSLRAEDTATYYCAKEIFGQFDYWGQGTLVTVSS
VL: AQSALTQPPSVSAAPRQRVTISCSGSTSNIGNNAVTWYQYFPGKAPKLLIYSDNQRPSGVPDRFSGSKSGTSASLAITGLQAEDEADYYCQSYDRGLSVVFGGGTKLTVL
binds: [11] | HMG2 [13] | HMG2 [14] | [4] | HMG2 [15]

B6: anti-HMG1 antibody G12 (antibody, V domains shown)
VH: EVQLLESGGGLVQPGGSLRLSCAASGFTFSYYMMTWVRQAPGKGLEWVSSISPSGGYTIYADSAKGRFTISRDNSKNTLYLQMNSLRAEDTAVYYCARALSTGSFWDYWGQGTLVTVSS
VL: DIQMTQSPGTLSLSPGERATLSCRASESLTSTYVAWYQHKPGQAPRLLIHGGSTRATGIPVRFSGSGSGTDFTLTIATLEPEDFAVYYCQQYGSSPYTFGQGTKLEIK
binds: [5] | [8] | [9]

B7: anti-HMG1 antibody S10 (antibody, V domains shown)
VH: EVQLLESGGGLVQPGGSLRLSCAASGFTFSWYDMWWVRQAPGKGLEWVSWIVPSGGITAYADSVKGRFTISRDNSKNTLYLQMNSLRAEDTATYYCARGNYGPSPFDYWGQGTLVTVSS
VL: DIQMTQSPGTLSLSPGERATLSCRATQSVRKNFLAWYQQKPGQAPRLLIYDASSRATGIPDRFSGSGSGTDFTLTISRLEPEDFAVYYCQQYGNSPIIFGQGTRLEIK
binds: [12] | [11] | [3] | [4] | [7]

B8: anti-HMG1 antibody E11 (antibody, V domains shown)
VH: EVQLLESGGGLVQPGGSLRLSCAASGFTFSRYQMNWVRQAPGKGLEWVSSISPSGGHTHYADSVKGRFTISRDNSKNTLYLQMNSLRAEDTAVYYCAKDGRQGKISTVDHWGQGTLVTVSS
VL: DIQMTQSPGTLSLSPGERATLSCRASQSVRSNFLAWYQQKPGQAPRLLIYGASRRASGIPDRFSGSGFGADFTLSISRLEPEDFAVYYCQQYGSSPNTFGQGSRVEIK
binds: [11] | HMG2 [13] | HMG2 [14] | [5] | HMG2 [15] | [8]

B9: anti-HMG1 antibody G9 (antibody, V domains shown)
VH: EVQLLESGGGLVQPGGSLRLSCAASGFTFSSYDMFWVRQAPGKGLEWVSRISPSGGYTYYADSVKGRFTISRDNSKNTLYLQMNSLRAEDTAVYYCARLRYFDSRGYAFDIWGQGTMVTVSS
VL: DIQMTQSPGTLSLSPGERATLSCRASQSVRSSYLAWYQQKPGQAPRLLIYGASTRATGIPDRFSGSGSGTDFTLTISRLEPEDFAVYYCQQYGTSRWTFGQGTKVEIK
binds: [4] | [5] | [8] | [9]
